Laboratory results: PubChem BioAssay AID1671190 (National Center for Advancing Translational Sciences (NCATS), 2021)
Out of some 580,000 compounds screened, about 6,100 (1.1%) were called active. This list was built around the results that the source calls inconclusive (neither active nor inactive); the mix of calls is not that of the screen. The call rests on the fitted dose curve; in most records, active means well fitted inhibition curve with a large enough effect; inconclusive means small, poorly fitted or top-dose-only effect, or another doubt; inactive means no such curve, though single readings can be large or run the other way. Where the call is inconclusive, the potency comes from a doubtful curve fit. More than one record can exist for a structure, and the calls need not agree.

Protein sequences, listed by entry. Tags and fused reporters are not part of them. Lines headed by an entry give the natural chain unless they say otherwise; changes in a name come on top.
UniProt P18054: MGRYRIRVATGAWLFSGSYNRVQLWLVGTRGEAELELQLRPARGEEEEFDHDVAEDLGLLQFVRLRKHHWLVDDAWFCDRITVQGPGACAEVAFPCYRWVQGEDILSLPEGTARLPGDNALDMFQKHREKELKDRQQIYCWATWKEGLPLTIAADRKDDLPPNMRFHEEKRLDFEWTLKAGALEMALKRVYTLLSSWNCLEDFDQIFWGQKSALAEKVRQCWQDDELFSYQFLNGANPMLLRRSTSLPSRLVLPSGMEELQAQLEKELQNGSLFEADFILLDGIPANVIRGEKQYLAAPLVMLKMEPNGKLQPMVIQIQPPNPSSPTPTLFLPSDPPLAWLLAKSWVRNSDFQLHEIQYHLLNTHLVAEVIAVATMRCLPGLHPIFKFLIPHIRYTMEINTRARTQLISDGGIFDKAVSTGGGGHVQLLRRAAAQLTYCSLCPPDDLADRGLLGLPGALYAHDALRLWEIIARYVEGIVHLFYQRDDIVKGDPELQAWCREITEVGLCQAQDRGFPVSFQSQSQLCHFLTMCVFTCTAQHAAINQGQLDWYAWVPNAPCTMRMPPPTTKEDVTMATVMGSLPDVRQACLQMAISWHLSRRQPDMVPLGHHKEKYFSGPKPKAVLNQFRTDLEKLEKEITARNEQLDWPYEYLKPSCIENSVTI

molecular target: Polyunsaturated fatty acid lipoxygenase ALOX12 (Homo sapiens) (UniProt P18054); assay: Primary qHTS assay for inhibitors of human arachidonate 12S-lipoxygenase (ALOX12): Round 2; conditions: purified 12hLO, xylenol orange hydroperoxide absorbance; activity change, negative = inhibition: at 108 µM (top of the series) unless noted
Method in brief: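 Purified human 12hLO (150 nM final) in 25 mM Hepes, 0.01% Triton X-100, pH 7.0 was preincubated 15 min at room temperature with compound. Then 40 uM arachidonic acid was added, 30 min. Hydroperoxide was read by Fe-XO absorbance ratio 573/405 nm.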
On the % scale 0 is the no-effect control and ±100 the full control effect; potency means the concentration at half of the fitted maximal effect.

Row | Structure (SMILES) | activity change, negative = inhibition | Potency
1 | Cc1nc(-c2ccc(NC(=O)c3ccco3)cc2)cs1 | inactive: -14% | –
2 | Cc1ccc(NC(=O)CCN2CCN(C/C=C/c3ccccc3)CC2)cc1 | – | inconclusive: 56.2 µM [inhibitor, single point]
3 | C/C(=C\C(=O)c1ccc(Cl)cc1)Nc1ccc(Br)cc1 | – | inconclusive: 25.1 µM [inhibitor, partial curve, poor fit]
4 | c1ccc(-c2ccc(CN[C@H]3CO[C@H]4[C@@H]3OC[C@@H]4n3cc(CC4CCCCC4)nn3)cc2)cc1 | inactive: 60.4% | –
5 | C(#Cc1ccccc1)C[N+]1(CC#Cc2cccc3ccccc23)CCCC1 | – | inconclusive: 44.7 µM [inhibitor, partial curve, poor fit]
6 | Cn1ccnc1SCC(=O)Nc1ccc([N+](=O)[O-])cn1 | – | inconclusive: 100 µM [inhibitor, single point]
7 | CN(C)CCCN(C(=O)COc1ccc(Cl)cc1)c1nc2c(F)cccc2s1 | – | active: 39.8 µM
8 | O=[S+]([O-])(c1ccccc1)N1CCNc2cnc(Nc3cccc(F)c3)nc2C1 | – | inconclusive: 126 µM [inhibitor, single point]
9 | CC(C)c1ccc(OCC(=O)N2CCN(c3ccccn3)CC2)c(Br)c1 | – | inconclusive: 44.7 µM [inhibitor, partial curve, poor fit]
10 | Cc1cc(S(=O)(=O)Nc2cc3c(cc2C)n(C)c(=O)c(=O)n3C)ccc1F | inactive: -18.7% | –
11 | CCC(C)C(=O)Nc1nc(C)c(-c2csc(Nc3ccccc3OC)n2)s1 (configuration not stated) | – | inconclusive: 31.6 µM [inhibitor, partial curve, poor fit]
12 | COc1ccc(C(=O)N[C@@H]2CCC[C@@H]2C(=O)N2CCC(Cc3ccccc3)CC2)cc1 | – | inconclusive: 44.7 µM [inhibitor, partial curve, poor fit]
13 | O=C(CCNc1nc(Cl)nc2nc[nH]c12)NCCO | – | inconclusive: 126 µM [inhibitor, single point]
14 | CCOC(=O)c1ccc(NC(=S)Nc2cccc(C)n2)cc1 | – | inconclusive: 5.01 µM [inhibitor, full curve, poor fit]
15 | COc1cccc(/C=N/n2cnc3cc(C)c(C)cc32)c1OC | – | inconclusive: 100 µM [inhibitor, single point]
16 | C1=C(CCNc2nnnn2-c2ccccc2)CCCC1 | inactive: -5.23% | –
17 | COc1ccc(C(CC(=O)O)NC(=O)COc2ccccc2)cc1OC (configuration not stated) | – | inconclusive: 35.5 µM [inhibitor, partial curve, poor fit]
18 | Cc1cc(Cl)ccc1NC(=S)NCCc1ccc(Cl)cc1 | – | active: 22.4 µM
19 | COc1cc(CCC(=O)NCc2ccc(Cl)cc2)cc(OC)c1OC | – | inconclusive: 3.16 µM [inhibitor, full curve, poor fit]
20 | Cc1cc(C)c2c(=O)n(CC(=O)Nc3ccc(Cl)cc3)sc2n1 | – | active: 1.26 µM
21 | COc1cc(CN2CCC(C(N)=O)CC2)ccc1OCc1ccccc1 | – | inconclusive: 6.31 µM [inhibitor, full curve, poor fit]

Row | Structure (SMILES) | activity change, negative = inhibition | Potency
22 | O=C(Nc1nc(-c2ccc(Cl)cc2Cl)cs1)C1CCCO1 (configuration not stated) | – | inconclusive: 79.4 µM [inhibitor, partial curve, poor fit]
23 | CCCOc1ccc(-c2c(C(=O)N/N=C/c3ccncc3)nnn2-c2nonc2N)cc1 | inactive: 12.8% | –
24 | O=C(Oc1ccccc1O)c1cccc2ccccc12 | inactive: -24.4% | –
25 | CCc1nnc(NC(=O)Cn2c(=O)oc3ccccc32)s1 | inactive: 11.4% | –
26 | CN(C(=O)CCN1Cc2ccccc2C1=O)C1CCCN(CCc2ccccc2)C1 (configuration not stated) | – | inconclusive: 10 µM [inhibitor, full curve, poor fit]
27 | COc1ccc(N2C(=O)c3[nH]nc(-c4ccccc4)c3C2c2ccc(Br)cc2)cc1 (configuration not stated) | inactive: -18.4% | –
28 | CCN1CCN(c2oc(-c3ccc(Cl)cc3)nc2C#N)CC1 | inactive: -4.9% | –
29 | Cc1cccc(S(=O)(=O)c2cn(Cc3ccccc3)c3cc(N4CCC(C)CC4)c(F)cc3c2=O)c1 | – | inconclusive: 100 µM [inhibitor, single point]
30 | CCNC(=O)C12CCCC=C1N(C1CCCC1)C(=O)CC2 (configuration not stated) | – | inconclusive: 5.62 µM [inhibitor, full curve, poor fit]
31 | Cc1ccc(C(=O)C(Sc2ncccn2)c2ccc(C)cc2)cc1 (configuration not stated) | – | inconclusive: 79.4 µM [inhibitor, single point]
32 | COc1cccc(-c2c(NC(=O)c3ccc(Cl)cc3)oc3ccccc3c2=O)c1 | – | inconclusive: 44.7 µM [inhibitor, partial curve, poor fit]
33 | CCc1ccc(CNC(=O)c2ccc(OC3CCN(C(C)=O)CC3)c(OC)c2)nc1 | – | inconclusive: 31.6 µM [inhibitor, single point]
34 | CC1(Cc2cc(Cl)ccc2C(F)(F)F)C(=O)Nc2ccc(S(=O)(=O)NC3CCCCC3)cc21 (configuration not stated) | – | inconclusive: 6.31 µM [inhibitor, full curve, poor fit]
35 | CCOc1ccc(CC(=O)Nc2c(C(=O)c3ccc(Cl)cc3)oc3ccccc23)cc1OCC | inconclusive: -33% [inhibitor] | –
36 | Cc1c(-c2ccccc2F)[nH]c2ccc(CNC(=O)CN3CC(=O)NC3=O)cc12 | inactive: 32.3% | –
37 | CCN(C[C@H]1N[C@@](Cc2ccccc2)(C(=O)OC)[C@H]2C(=O)N(Cc3ccccc3)C(=O)[C@@H]12)C(=O)c1ccc(C)cc1 | – | inconclusive: 10 µM [inhibitor, partial curve, poor fit]
38 | CCCN(CC)c1ccc(/C=N/NC(=S)Nc2ccc(CC)cc2)cc1 | – | inconclusive: 39.8 µM [inhibitor, partial curve, poor fit]
39 | CCC1=Nc2cc(C(=O)NCCc3ccccc3)ccc2Sc2ccc(Cl)cc21 | – | inconclusive: 126 µM [inhibitor, partial curve, poor fit]
40 | O=C(COC(=O)c1cc([N+](=O)[O-])ccc1N1CCOCC1)c1ccc(Br)cc1 | – | inconclusive: 79.4 µM [inhibitor, partial curve, poor fit]
41 | CCCCOc1ccc(C(=O)NCC2(c3ccccc3)CCOCC2)cc1 | inactive: -5.83% | –
42 | COc1ccccc1CN(C)C(=O)c1cccc(S(=O)(=O)N2CCN(Cc3ccccc3)CC2)c1 | inactive: 11.8% | –

From no. 33 up to 42, as listed above:
Row | Structure (SMILES) | activity change, negative = inhibition | Potency
33 | CCc1ccc(CNC(=O)c2ccc(OC3CCN(C(C)=O)CC3)c(OC)c2)nc1 | – | inconclusive: 31.6 µM [inhibitor, single point]
34 | CC1(Cc2cc(Cl)ccc2C(F)(F)F)C(=O)Nc2ccc(S(=O)(=O)NC3CCCCC3)cc21 (configuration not stated) | – | inconclusive: 6.31 µM [inhibitor, full curve, poor fit]
35 | CCOc1ccc(CC(=O)Nc2c(C(=O)c3ccc(Cl)cc3)oc3ccccc23)cc1OCC | inconclusive: -33% [inhibitor] | –
36 | Cc1c(-c2ccccc2F)[nH]c2ccc(CNC(=O)CN3CC(=O)NC3=O)cc12 | inactive: 32.3% | –
37 | CCN(C[C@H]1N[C@@](Cc2ccccc2)(C(=O)OC)[C@H]2C(=O)N(Cc3ccccc3)C(=O)[C@@H]12)C(=O)c1ccc(C)cc1 | – | inconclusive: 10 µM [inhibitor, partial curve, poor fit]
38 | CCCN(CC)c1ccc(/C=N/NC(=S)Nc2ccc(CC)cc2)cc1 | – | inconclusive: 39.8 µM [inhibitor, partial curve, poor fit]
39 | CCC1=Nc2cc(C(=O)NCCc3ccccc3)ccc2Sc2ccc(Cl)cc21 | – | inconclusive: 126 µM [inhibitor, partial curve, poor fit]
40 | O=C(COC(=O)c1cc([N+](=O)[O-])ccc1N1CCOCC1)c1ccc(Br)cc1 | – | inconclusive: 79.4 µM [inhibitor, partial curve, poor fit]
41 | CCCCOc1ccc(C(=O)NCC2(c3ccccc3)CCOCC2)cc1 | inactive: -5.83% | –
42 | COc1ccccc1CN(C)C(=O)c1cccc(S(=O)(=O)N2CCN(Cc3ccccc3)CC2)c1 | inactive: 11.8% | –
